Test results reported in PMC8437434.
Results are given in words; binding and its absence hold for the method and conditions named. Some entries that bind do so weakly or less than the wild type.

Protein sequences, listed by entry. Tags and fused reporters are not part of them. Lines headed by an entry give the natural chain unless they say otherwise; changes in a name come on top. Chains listed by the source or under a name are the forms on record and can include a tag or linker.
preformed tau^4R fibrils (P10636, form named): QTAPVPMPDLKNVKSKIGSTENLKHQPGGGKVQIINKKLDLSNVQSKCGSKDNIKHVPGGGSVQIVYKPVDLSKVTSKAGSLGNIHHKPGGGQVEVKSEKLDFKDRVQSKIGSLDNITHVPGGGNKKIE
UniProt O60884: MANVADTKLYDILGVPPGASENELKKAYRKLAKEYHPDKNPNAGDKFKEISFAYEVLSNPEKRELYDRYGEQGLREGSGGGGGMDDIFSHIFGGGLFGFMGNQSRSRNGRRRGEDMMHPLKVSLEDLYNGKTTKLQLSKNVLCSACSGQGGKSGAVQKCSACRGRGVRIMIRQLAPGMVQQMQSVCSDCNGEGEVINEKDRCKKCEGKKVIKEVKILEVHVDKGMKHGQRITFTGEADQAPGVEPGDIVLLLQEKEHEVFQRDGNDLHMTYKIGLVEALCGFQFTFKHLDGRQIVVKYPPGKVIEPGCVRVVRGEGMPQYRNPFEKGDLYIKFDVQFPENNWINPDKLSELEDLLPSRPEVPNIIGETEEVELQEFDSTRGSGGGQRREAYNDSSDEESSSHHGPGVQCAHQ

How the values were obtained:
preformed tau^4R fibrils [1] = biological target: preformed tau^4R fibrils (UniProt P10636); assay: negative stain electron microscopy; preformed tau fibers incubated with chaperone at 1:1 molar ratio; uranyl formate stain; both purified
preformed tau^4R fibrils [2] = biological target: preformed tau^4R fibrils (UniProt P10636); assay: co-sedimentation; 10 µM preformed tau^4R fibers with 10 µM chaperone, 20 min 37 °C, 50 mM HEPES pH 7.4, 50 mM KCl; centrifuged 16,900 g 30 min; supernatant and pellet on SDS-PAGE; both purified

- binding (preformed tau^4R fibrils [1]): binds
- binding (preformed tau^4R fibrils [2]): binds
Substance: DNAJA2 (from UniProt O60884 1-412)
